Measured values from patent US8735323B2, “Fungicide N-5-membered fused heteroaryl-methylene-N-cycloalkyl-carboxamide derivatives” (Bayer Cropscience AG, priority 2007, dated 2014).
Some results were stated once for a whole list of compounds, not compound by compound. At least one compound was matched to its structure with a doubt left.

Assays:
Pyrenophora teres = assay: in vivo test on Pyrenophora teres (barley net blotch); conditions: dose of 500 ppm; barley plants (Express variety), preventive spray 24 hours before contamination; grading 12 days after contamination vs control plants
Alternaria brassicae = assay: in vivo test on Alternaria brassicae (leaf spot of crucifers); conditions: dose of 500 ppm; radish plants (Pernot variety), preventive spray 24 hours before contamination; grading 6 to 7 days after contamination vs control plants
Sphaerotheca fuliginea = assay: in vivo test on Sphaerotheca fuliginea (cucurbit powdery mildew); conditions: dose of 500 ppm; gherkin plants (Vert petit de Paris variety), preventive spray 24 hours before contamination; grading 21 days after contamination vs control plants
[1] = test system: Mycosphaerella graminicola; assay: in vivo test on Mycosphaerella graminicola (wheat leaf spot); conditions: dose of 500 ppm; wheat plants (Scipion variety), preventive spray 24 hours before contamination; grading 21 to 28 days after contamination vs control plants
[2] = test system: Puccinia recondita f. Sp. Tritici; assay: in vivo test on Puccinia recondita f. sp. tritici (wheat brown rust); conditions: dose of 500 ppm; wheat plants (Scipion variety), preventive spray 24 hours before contamination; grading 10 days after contamination vs control plants

Structure (SMILES)	good or total protection (Pyrenophora teres)	good protection (Alternaria brassicae)	good or total protection (% of efficacy) (Sphaerotheca fuliginea)	good or total protection (% of efficacy) [1]	good or total protection [2]
Cc1nn(C)c(F)c1C(=O)N(C1CC1)C(C)c1cc2ccccc2o1 (centres unmarked) [Compound 16]	at least 70%	at least 70%	at least 70%	at least 70%	–
CC(c1cc2ccccc2o1)N(C(=O)c1cn(C)nc1C(F)F)C1CC1 (centres unmarked) [Compound 22]	at least 70%	at least 70%	at least 70%	at least 70%	–
Cc1nn(C)c(F)c1C(=O)N(Cc1cc2ccccc2o1)C1CC1 [Compound 6]	–	at least 70%	–	–	–
Cc1nn(C)c(F)c1C(=O)N(Cc1cc2ccccc2n1C)C1CC1 [Compound 5]	–	at least 70%	–	–	–
Cc1nn(C)c(F)c1C(=O)N(Cc1sc2ccccc2c1C)C1CC1 [Compound 7]	at least 70%	at least 70%	–	–	at least 70%
Cc1nn(C)c(F)c1C(=S)N(Cc1cc2ccccc2o1)C1CC1 [Compound 15]	–	–	–	at least 70%	–
Cc1nn(C)c(F)c1C(=O)N(Cc1csc2ccc(Cl)cc12)C1CC1 [Compound 10]	at least 70%	–	at least 70%	at least 70%	–
